PubChem BioAssay AID1347076 (National Center for Advancing Translational Sciences (NCATS), 2019)
Among all 400,000 compounds or so, about 13,000 (3.2%) were called active. Inconclusive results, whose numbers are uncertain, are shown with a selection of clear calls. Calls follow the shape of the dose curve; as a rule, active = well fitted cell-killing curve with a large enough effect; inconclusive = small, poorly fitted or top-dose-only effect, or effect the other way; inactive = flat fitted curve, though single readings scatter. A potency beside an inconclusive call is a rough fit, not a confirmed value.

Assay: qHTS assay for MDR1-selective chemotherapeutics: Primary screen using the drug-selected MDR subline cells KB-V1; also: nearly all actives have a fitted effect of over 60% in size
Conditions: KB-V1 MDR cells viability, CellTiter-Glo, 72 h; activity change, negative = cytotoxicity: at 46.1 µM (top of the series)
How it was run: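 Cells of the MDR subline KB-V1 are plated, dosed with compound at multiple concentrations, and incubated 72 h at 37 degrees C; CellTiter-Glo is then added and luminescence read after 10 min.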
% is scaled to controls: 0 for no effect and ±100 for the full control effect; potency is read from the fitted curve at half-maximal effect.

Structure (SMILES)	Potency	activity change, negative = cytotoxicity
Cc1cc(/C=C(\C#N)C(=O)O)c(C)n1CCC(C)C	inconclusive: 5.8 µM [rising, partial curve]	
Cc1cc(/C=N/NC(=O)c2ccccc2F)c(C)n1-c1ccccc1		inactive: 1.89%
COc1cccc(NC(=O)CCC(=O)N2Cc3ccccc3Oc3ncccc32)c1		inactive: -2.55%
O=C(CSc1nc(-c2ccc(F)cc2)cs1)NCCN1C(=O)CSC1=O	inconclusive: 23.1 µM [cytotoxic, single point]	
COc1cccc(CNc2cnc3ccccc3c2)c1O		inactive: -23.4%
O=C(C1=C[C@@H](C2CC2)C[C@@H](OCc2ccc(CO)cc2)O1)N1CCOCC1		inactive: 55.2%
CCCNC(=O)C1(C)CCCN(Cc2ccc(-c3ccccn3)cc2)C1 (stereo not drawn)		inactive: 2.65%
N#Cc1ccc(NC(=O)Cn2cnc(S(=O)(=O)N3CCOCC3)c2)cc1	inconclusive: 20.6 µM [rising, partial curve]	
Cc1ccc(C(=O)/C=C/c2ccc(F)cc2)o1		inactive: -13.5%
C=C1CC2C(CCC3(C)C2CCC3(O)C(C)=O)C2(C)CCC(=O)C=C12 (stereo not drawn)	active: 20.6 µM	
O=C(NCC1CCCO1)c1cc(S(=O)(=O)N2CCOCC2)ccc1Cl (stereo not drawn)		inactive: 0%
CCCC(=O)NC1=C(Cl)C(=O)c2ccccc2C1=O	inconclusive: 20.6 µM [cytotoxic, single point]	
CN(C)S(=O)(=O)n1cc(/C=C(\NC(=O)c2ccccc2)C(=O)N2CCCCC2)c2ccccc21		inactive: -25.8%
CC(C)n1nnnc1C1c2ccccc2C(=O)N1Cc1ccco1 (stereo not drawn)		inactive: -19.8%
CN(Cc1ccccc1)C(=O)COC(=O)c1cc([N+](=O)[O-])ccc1N1CCOCC1	inconclusive: 6.51 µM [cytotoxic, partial curve]	
Cc1cc(-c2n[nH]c(=S)n2/N=C/C=C/c2ccccc2)n[nH]1	inconclusive: 18.4 µM [rising, single point]	
O=C1c2c(-c3ccc(Br)cc3)noc2CCN1Cc1cn(Cc2cccnc2)nn1	active: 23.1 µM	
O=C(CC(=O)c1ccccn1)c1ccccc1	active: 13 µM	
COc1ccccc1CNC(=O)CCCN1C(=O)COc2ccc(C)cc21	inconclusive: 20.6 µM [cytotoxic, partial curve]	
CC(=O)Nc1ccc(S(=O)(=O)Oc2ccccc2N2CCCCC2)cc1	inconclusive: 32.6 µM [cytotoxic, single point]	
COc1ccc(CCn2c(SCC(=O)Nc3cc(C)on3)nc3ccccc3c2=O)cc1OC	inconclusive: 2.59 µM [cytotoxic, full curve]	
Cc1nc2c(cnn2CCO)c(=O)[nH]1		inactive: 10.6%
Cn1cc(Cl)c(C(=O)OCC(=O)Nc2ccccc2)n1	inconclusive: 23.1 µM [rising, single point]	

Sorted by length of the SMILES (high to low): some entries from above.
Structure (SMILES)	Potency	activity change, negative = cytotoxicity
COc1cccc(NC(=O)CCC(=O)N2Cc3ccccc3Oc3ncccc32)c1		inactive: -2.55%
Cc1cc(/C=C(\C#N)C(=O)O)c(C)n1CCC(C)C	inconclusive: 5.8 µM [rising, partial curve]	
Cn1cc(Cl)c(C(=O)OCC(=O)Nc2ccccc2)n1	inconclusive: 23.1 µM [rising, single point]	
